## Library screening results

Amino acid sequences for entries named in this document (tags omitted).
UniProt E9BF75, entry or part of it: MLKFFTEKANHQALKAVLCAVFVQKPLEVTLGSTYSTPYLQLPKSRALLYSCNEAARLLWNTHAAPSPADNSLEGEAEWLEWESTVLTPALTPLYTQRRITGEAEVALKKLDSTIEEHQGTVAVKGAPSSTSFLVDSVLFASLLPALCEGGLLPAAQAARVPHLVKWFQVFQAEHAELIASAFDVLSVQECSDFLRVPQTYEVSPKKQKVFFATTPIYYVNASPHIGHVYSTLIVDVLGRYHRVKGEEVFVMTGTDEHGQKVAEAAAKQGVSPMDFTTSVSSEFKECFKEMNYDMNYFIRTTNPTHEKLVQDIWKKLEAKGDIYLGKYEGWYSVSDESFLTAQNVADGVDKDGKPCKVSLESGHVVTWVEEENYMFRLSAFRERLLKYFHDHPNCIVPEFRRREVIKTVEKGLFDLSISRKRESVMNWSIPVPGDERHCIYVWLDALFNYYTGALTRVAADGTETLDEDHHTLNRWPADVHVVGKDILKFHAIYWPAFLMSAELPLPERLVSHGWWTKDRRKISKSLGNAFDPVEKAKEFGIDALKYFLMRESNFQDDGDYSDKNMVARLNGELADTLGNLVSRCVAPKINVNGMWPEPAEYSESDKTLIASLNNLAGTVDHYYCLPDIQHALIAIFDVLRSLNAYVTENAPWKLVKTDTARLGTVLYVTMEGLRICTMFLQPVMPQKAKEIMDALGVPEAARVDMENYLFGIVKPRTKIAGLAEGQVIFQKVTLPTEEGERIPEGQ

Measurements from “University of Dundee, Small-Polar-MMV Screening Library” (2021), ChEMBL document CHEMBL3988442.

Results are percentages, as filed. The record does not define 0% and 100%; most values in the screen are far below 50% and negative numbers occur (in some assays of this library far below -100). Compounds were drawn at random from those tested, without regard to their results.

LdMetRS: 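Primary screen of methionyl-tRNA synthetase; the read-out is not stated. Target: Methionyl-tRNA synthetase (putative), Leishmania donovani (UniProt E9BF75). The test concentration is not given. Values are per cent inhibition. Size under these conditions: about 68,000 compounds, about 24 of them at 50% or above in at least one test.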
Mtb heat-shock: 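Assay on Mycobacterium tuberculosis, filed only as a heat shock assay from Cornell; the read-out is not stated. The concentration is filed as 10 mM, unlikely as a test dose, so the dose is not known. The record gives no direction; compounds that gave an IC50 in retests scored well above the rest, so higher reads as stronger inhibition. Size under these conditions: about 69,000 compounds, about 930 of them at 50% or above in at least one test.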

* CC(C)c1cc(NC(=O)c2ccc([S+]([O-])C(C)C)cc2)[nH]n1 (stereo not shown) : LdMetRS: 24.22%; Mtb heat-shock: -7.354%
* c1ccc2oc(CCCN3CCc4cncnc4C3)nc2c1 : LdMetRS: 21.69%; Mtb heat-shock: 7.725%
* c1ccc2c(CC3CN(Cc4nccs4)CCO3)cccc2c1 (stereo not shown) : LdMetRS: 8.711%; Mtb heat-shock: -8.986%
* O=C(c1cnc(C2CC2)nc1)N1CCCC(c2nccs2)C1 (stereo not shown) : LdMetRS: 1.869%; Mtb heat-shock: 0.3525%
* CCN(C)c1ncnc2c1CCN(Cc1nccs1)CC2 : LdMetRS: 5.109%
* O=S(=O)(CC1CCCCO1)Nc1cnn(Cc2ccccc2)c1 (stereo not shown) : LdMetRS: 11.56%; Mtb heat-shock: 1.137%
* CNC(=O)c1ccc(C(=O)N2CCCC2c2c(C)nn(C)c2C)cn1 (stereo not shown) : LdMetRS: 14.92%; Mtb heat-shock: -2.965%
* [H][C@]12CC[C@]([H])(CN(C3Cc4ccccc4C3)C1)N(C(=O)CO)C2 : Mtb heat-shock: 4.998%
* CN1CCN(Cc2ccco2)Cc2cccnc21 : LdMetRS: 5.19%; Mtb heat-shock: -0.05167%
* Cc1cnc(CN(C)C2CCN(CC(=O)N(C)c3nccs3)C2)o1 (stereo not shown) : LdMetRS: -2.347%; Mtb heat-shock: 15.65%
* O=C(c1ccc[nH]1)N1Cc2nccn2CC(COc2cccnc2)C1 (stereo not shown) : LdMetRS: -0.8219%; Mtb heat-shock: -18.36%
* CN1CCN(c2ccccc2CNC(=O)CSC(F)(F)F)CC1 : LdMetRS: 10.47%; Mtb heat-shock: -13.38%
* COC(=O)COn1c(OC)nc2ccccc2c1=O : LdMetRS: 4.082%; Mtb heat-shock: 8.477%
* CC(C)n1[nH]c(=O)c2c1NC(=O)CC2c1ccc2ncccc2c1 (stereo not shown) : LdMetRS: 8.889%; Mtb heat-shock: -7.05%
* Nc1nc2c(c(=O)[nH]1)CCN(C(=O)c1cccc3nccnc13)C2 : LdMetRS: 11.02%; Mtb heat-shock: 23.74%
* CCC(CO)N(Cc1ccccn1)Cc1ccc(-c2ccn[nH]2)s1 (stereo not shown) : LdMetRS: 9.067%; Mtb heat-shock: -9.67%
* CSCCC1c2nc[nH]c2CCN1Cc1[nH]c2ccc(F)cc2c1C (stereo not shown) : LdMetRS: 24.39%; Mtb heat-shock: 6.39%
* CC(C)(C)NC(=O)C1CSCN1S(=O)(=O)c1ccccc1S(C)(=O)=O (stereo not shown) : LdMetRS: 12.45%; Mtb heat-shock: -22.47%
* CC(=O)NCCc1ccc(S(=O)(=O)Nc2ccc(C)c(F)c2)s1 : LdMetRS: 8.657%; Mtb heat-shock: -2.825%
* OC(CNCCn1cccn1)c1ccc(Br)cc1 (stereo not shown) : LdMetRS: 10.12%; Mtb heat-shock: -23.76%
* Cc1nccc(N[C@H]2CN(C(=O)CCN3CCCC3=O)C[C@@H]2C(C)C)n1 : LdMetRS: 12.11%; Mtb heat-shock: -32.53%
* Cc1ccc2oc(SCC(N)=O)nc2n1 : LdMetRS: 13.41%; Mtb heat-shock: -1.726%
* CCOC(=O)N1CCN(c2nc(NC3CC3)c3ccccc3n2)CC1.Cl : Mtb heat-shock: 3.305%
* O=C(O)c1cccnc1N1CCN(Cc2ccc(F)cc2)C(CCO)C1 (stereo not shown) : LdMetRS: 3.401%; Mtb heat-shock: -20.17%
* CC(CN1CCCC1=O)NC(=O)c1ccc(C(F)(F)F)[nH]c1=O (stereo not shown) : LdMetRS: 20.36%; Mtb heat-shock: 15.42%
* COc1cccc(-c2cc(C(=O)N3N=C(C)CC3(O)C(F)(F)F)[nH]n2)c1 (stereo not shown) : LdMetRS: 9.632%; Mtb heat-shock: 34.74%
* CN(C)C(=O)CS(=O)(=O)Cc1cc(Cl)c2c(c1)OCCO2 : LdMetRS: 9.218%; Mtb heat-shock: -17.44%
* Brc1ccc(CNCc2nnc3n2CCC3)s1.Cl : Mtb heat-shock: -13.72%
* Cc1cc(N2CCC(n3cc(CN4CCSCC4)nn3)CC2)ccn1 : LdMetRS: 16.72%; Mtb heat-shock: 1.499%
* Cc1nc(C(C)C)sc1C(=O)N1CCC(N2CCSCC2)CC1 : LdMetRS: 14.64%; Mtb heat-shock: -11.58%
* CN(C)c1cc2c(nn1)CCN(C(=O)C1Cc3ccccc3O1)C2 (stereo not shown) : LdMetRS: 8.38%; Mtb heat-shock: -18.88%
* N#Cc1ccc(NCCS(=O)(=O)N2CCc3ccccc32)nc1 : LdMetRS: 7.796%; Mtb heat-shock: -25%
* CN(C)c1cc(CNC(=O)Nc2ccc(F)cc2)ccn1 : LdMetRS: 10.43%; Mtb heat-shock: 37.65%
* O=C(O)C(F)(F)F.O=C(O)C(F)(F)F.[H][C@]12C[C@@H](CN3CCCC3)N(c3nccs3)[C@@]1([H])CCN(C(=O)CC)C2 : Mtb heat-shock: 22.21%
* CCOCC(=O)N1CCc2c(CN(C)C)nn(C(C)C)c2C1 : LdMetRS: 14.86%
* CC(C)(C)c1n[nH]cc1CNC1CCC(OCC(F)(F)F)CC1 (stereo not shown) : LdMetRS: 20.43%
* COc1ccccc1C(C)CC(=O)N1CCCS1(=O)=O (stereo not shown) : LdMetRS: 16.67%; Mtb heat-shock: -17.17%
* COCC1CN(C(=O)Cc2ccccn2)Cc2c1cnn2CC1CC1.O=C(O)C(F)(F)F.O=C(O)C(F)(F)F (stereo not shown) : Mtb heat-shock: -3.495%
* CCOCC(=O)N1CCC[C@]2(C[C@@H](OCc3ccncc3)CO2)C1 : LdMetRS: 10.75%; Mtb heat-shock: -14.38%
* Cc1cc(C)n(C2CN(CC(O)c3ccc(C(F)(F)F)cc3)C2)n1 (stereo not shown) : LdMetRS: 9.639%; Mtb heat-shock: -3.146%
* Cc1nn(-c2ncccn2)c2c1C(c1cnn(C)c1C)SCC(=O)N2 (stereo not shown) : LdMetRS: 13.03%; Mtb heat-shock: -14.93%
* COc1nc2c(cc1C(=O)N1CCCC1c1ccccn1)CCC2 (stereo not shown) : LdMetRS: 14.98%; Mtb heat-shock: 6.55%
* COc1ccccc1N1CCN(Cc2nc(C)c(C)o2)CC1 : LdMetRS: 11.62%; Mtb heat-shock: 19.66%
* Cn1nccc1-c1ncc(-c2cc(C(=O)O)n(CC3CC3)c2)cn1 : LdMetRS: -4.918%; Mtb heat-shock: 36.68%
* O=C(O)C(F)(F)F.O=C(O)C(F)(F)F.c1cncc(N2CCCC3(CCN(CCN4CCCC4)CC3)C2)c1 : Mtb heat-shock: -11.79%

Once more, the final 5:

{"compound": "Cc1nn(-c2ncccn2)c2c1C(c1cnn(C)c1C)SCC(=O)N2", "stereo": "stereo not shown", "LdMetRS": 13.03, "Mtb heat-shock": -14.93}
{"compound": "COc1nc2c(cc1C(=O)N1CCCC1c1ccccn1)CCC2", "stereo": "stereo not shown", "LdMetRS": 14.98, "Mtb heat-shock": 6.55}
{"compound": "COc1ccccc1N1CCN(Cc2nc(C)c(C)o2)CC1", "LdMetRS": 11.62, "Mtb heat-shock": 19.66}
{"compound": "Cn1nccc1-c1ncc(-c2cc(C(=O)O)n(CC3CC3)c2)cn1", "LdMetRS": -4.918, "Mtb heat-shock": 36.68}
{"compound": "O=C(O)C(F)(F)F.O=C(O)C(F)(F)F.c1cncc(N2CCCC3(CCN(CCN4CCCC4)CC3)C2)c1", "Mtb heat-shock": -11.79}